Laboratory results published in patent publication US20230201550A1, “SYSTEMS AND METHODS FOR TREATING PERSISTENT PAIN OF NEUROGENIC ORIGIN AND COMPLEX INJURY” (Nova Neura, LLC, priority 2020, published 2023).
At least one structure is not confirmed: it was looked up by name or label, or the drawing left a doubt.

System: microbial proliferation on a glucose substrate
Experiment: Anti-microbial properties in the topical compound
Conditions: component of the therapeutic compound

COc1cc(/C=C/c2ccc(O)cc2)cc(OC)c1 [Pterostilbene]
anti-microbial properties: anti-microbial properties to counteract microbial proliferation
